Consider six molecules from PubChem BioAssay AID312 (DTP/NCI, 2004).

The assay relates to BDF1 mice, C1498 leukemia ip, median survival T/C. Description: NCI In Vivo Anticancer Drug Screen. Data for tumor model C1498 Myeloid Leukemia (intraperitoneal) in B6D2F1 (BDF1) mice. The note with it: T/C endpoint: median survival time, schedule: Q01DX010 (ip), vehicle: saline, higher T/C = longer survival. The procedure:
The antitumor activity of compounds was measured in mice bearing transplantable tumors. Survival or tumor size were measured and the results are expressed as the measurement made in the treated group (T) divided by the measurement made in the vehicle treated control group (C). The tumor model used in this assay is C1498 Myeloid Leukemia (intraperitoneal) in B6D2F1 (BDF1) mice

The list shows only some results of the screen, not a fair sample: its compounds were picked by chemical class. Not every dose and run of a compound is shown. T/C: endpoint of the treated group in % of that of the vehicle group. Where survival is the endpoint, this PubChem deposit counts one and a half times the control or more as active, and values a quarter to a half above the control carry no call in these data; other NCI protocols may use other cut-offs. Some T/C values are marked as having no survivor count here; that says nothing about deaths at the dose. Schedules are NCI's codes, read here as Q, the interval in days (D) or hours (H), X, the number of doses. Counts like (3×) stand for listed records that agree. Some entries hold several experiments; the values are given in rising order.

For `ClCCNCCCl`, the T/C was 104 [survivor count not shown] and 109 % of control [survivor count not shown] (dose: 18.8 mg/kg/injection); 136 % of control [survivor count not shown] (2×) (dose: 37.5 mg/kg/injection); 109 [survivor count not shown] and 118 % of control [survivor count not shown] (dose: 75.0 mg/kg/injection).
For the molecule `O=C(O)CN(CCCl)CCCl`, the T/C (dose: 0.63 mg/kg/injection) is 113 % of control [survivor count not shown], the T/C (dose: 1.25 mg/kg/injection) is 127 % of control [survivor count not shown], the T/C (dose: 2.5 mg/kg/injection) is 136 % of control [survivor count not shown] and the T/C (dose: 5.0 mg/kg/injection) is 100 % of control [survivor count not shown].
Take `ClCCN(CCCl)Cc1nc2ccccc2[nH]1`: the T/C (dose: 1.25 mg/kg/injection) is 109 % of control [survivor count not shown] (2×); the T/C (dose: 2.5 mg/kg/injection) is 127 [survivor count not shown] and 136 % of control [survivor count not shown]; the T/C (dose: 5.0 mg/kg/injection) is 145 [survivor count not shown] and 154 % of control [survivor count not shown]; the T/C (dose: 10.0 mg/kg/injection) was 104 [survivor count not shown] and 195 % of control [survivor count not shown].
As to `NC1CCCCC1.NP(=O)(O)N(CCCl)CCCl`, the T/C is 127 % of control [survivor count not shown] (dose: 15.6 mg/kg/injection), 168 % of control [survivor count not shown] (dose: 31.3 mg/kg/injection) and 190 % of control [survivor count not shown] (dose: 62.5 mg/kg/injection).
`CC(C(=O)O)N(CCCl)CCCl` (configuration not stated): the T/C was 127 % of control [survivor count not shown] (dose: 0.5 mg/kg/injection), 131 % of control [survivor count not shown] (dose: 1.0 mg/kg/injection), 154 % of control [survivor count not shown] (dose: 2.0 mg/kg/injection) and 136 % of control [survivor count not shown] (dose: 4.0 mg/kg/injection).
As to `NC(Cc1cccc(N(CCCl)CCCl)c1)C(=O)O` (configuration not stated), the T/C (dose: 0.63 mg/kg/injection) was 122 % of control [survivor count not shown]; the T/C (dose: 1.25 mg/kg/injection) is 127 [survivor count not shown] and 136 % of control [survivor count not shown]; the T/C (dose: 2.5 mg/kg/injection) is 140 [survivor count not shown] and 145 % of control [survivor count not shown]; the T/C (dose: 5.0 mg/kg/injection) was 131 [survivor count not shown] and 140 % of control [survivor count not shown].
